Data taken from the supplement of paper PMC6411743.
± gives the standard deviation of the averaged measurements. Only a part is listed here, and it is no random draw. Small differences around the control level are noise.

Amino acid sequences for entries named in this document (tags omitted). A change or cut given only in a name is not applied to a line headed by its entry.
UniProt P13797: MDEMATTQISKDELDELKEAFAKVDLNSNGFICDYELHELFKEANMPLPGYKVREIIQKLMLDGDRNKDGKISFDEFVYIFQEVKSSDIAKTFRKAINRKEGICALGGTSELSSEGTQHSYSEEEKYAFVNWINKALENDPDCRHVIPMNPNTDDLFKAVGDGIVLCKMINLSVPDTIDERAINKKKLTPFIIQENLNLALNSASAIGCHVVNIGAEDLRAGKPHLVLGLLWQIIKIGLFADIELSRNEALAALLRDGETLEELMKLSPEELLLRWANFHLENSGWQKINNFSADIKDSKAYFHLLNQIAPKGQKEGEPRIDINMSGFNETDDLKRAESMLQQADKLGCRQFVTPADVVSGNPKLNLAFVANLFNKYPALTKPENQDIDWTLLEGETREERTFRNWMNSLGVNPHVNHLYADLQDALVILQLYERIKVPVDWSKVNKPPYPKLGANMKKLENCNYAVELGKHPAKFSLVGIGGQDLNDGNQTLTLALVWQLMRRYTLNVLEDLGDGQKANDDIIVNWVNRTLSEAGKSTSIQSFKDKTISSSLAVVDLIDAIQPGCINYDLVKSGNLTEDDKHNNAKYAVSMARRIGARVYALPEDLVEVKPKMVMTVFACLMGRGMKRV
UniProt Q86VS8: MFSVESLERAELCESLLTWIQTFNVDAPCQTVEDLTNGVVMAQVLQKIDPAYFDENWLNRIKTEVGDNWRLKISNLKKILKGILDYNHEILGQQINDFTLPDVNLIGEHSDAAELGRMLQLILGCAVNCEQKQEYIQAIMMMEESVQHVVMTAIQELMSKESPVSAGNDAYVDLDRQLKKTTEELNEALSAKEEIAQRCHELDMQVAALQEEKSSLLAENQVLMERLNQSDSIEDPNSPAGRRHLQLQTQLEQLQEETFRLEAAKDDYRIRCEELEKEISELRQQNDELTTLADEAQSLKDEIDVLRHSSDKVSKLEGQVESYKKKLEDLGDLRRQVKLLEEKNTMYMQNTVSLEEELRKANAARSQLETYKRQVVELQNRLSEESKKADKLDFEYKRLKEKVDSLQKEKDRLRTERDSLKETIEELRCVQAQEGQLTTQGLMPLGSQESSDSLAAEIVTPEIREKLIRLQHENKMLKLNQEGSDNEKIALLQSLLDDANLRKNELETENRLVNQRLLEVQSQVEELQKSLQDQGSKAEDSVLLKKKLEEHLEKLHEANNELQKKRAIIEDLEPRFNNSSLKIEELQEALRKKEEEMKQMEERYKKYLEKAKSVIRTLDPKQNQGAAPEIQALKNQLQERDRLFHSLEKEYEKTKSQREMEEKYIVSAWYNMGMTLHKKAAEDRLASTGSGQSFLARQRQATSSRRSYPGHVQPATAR
UniProt Q13492: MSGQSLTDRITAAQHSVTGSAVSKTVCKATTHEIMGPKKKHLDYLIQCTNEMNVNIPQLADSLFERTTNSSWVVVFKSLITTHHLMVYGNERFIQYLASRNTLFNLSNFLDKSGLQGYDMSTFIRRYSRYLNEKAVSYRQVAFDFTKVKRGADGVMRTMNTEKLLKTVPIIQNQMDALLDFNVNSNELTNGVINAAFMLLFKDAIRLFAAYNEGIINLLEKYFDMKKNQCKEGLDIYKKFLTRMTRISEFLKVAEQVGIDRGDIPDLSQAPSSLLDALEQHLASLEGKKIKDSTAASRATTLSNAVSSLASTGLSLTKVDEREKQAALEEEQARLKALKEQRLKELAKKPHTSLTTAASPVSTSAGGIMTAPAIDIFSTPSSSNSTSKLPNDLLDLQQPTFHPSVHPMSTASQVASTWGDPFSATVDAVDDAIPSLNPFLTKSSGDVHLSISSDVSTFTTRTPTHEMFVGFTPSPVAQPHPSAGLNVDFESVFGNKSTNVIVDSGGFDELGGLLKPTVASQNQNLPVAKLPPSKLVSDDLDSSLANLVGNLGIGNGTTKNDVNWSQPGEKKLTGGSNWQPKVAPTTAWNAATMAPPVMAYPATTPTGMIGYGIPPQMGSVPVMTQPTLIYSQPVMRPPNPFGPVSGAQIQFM
UniProt Q9NQ48: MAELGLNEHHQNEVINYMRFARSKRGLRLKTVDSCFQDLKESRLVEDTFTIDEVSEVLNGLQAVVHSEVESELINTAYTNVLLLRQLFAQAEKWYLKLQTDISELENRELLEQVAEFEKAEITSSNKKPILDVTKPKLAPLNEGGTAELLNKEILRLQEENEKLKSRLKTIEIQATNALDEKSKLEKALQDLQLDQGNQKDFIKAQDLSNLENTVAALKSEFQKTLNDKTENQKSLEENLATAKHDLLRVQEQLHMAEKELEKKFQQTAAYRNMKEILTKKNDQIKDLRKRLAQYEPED
UniProt P62191: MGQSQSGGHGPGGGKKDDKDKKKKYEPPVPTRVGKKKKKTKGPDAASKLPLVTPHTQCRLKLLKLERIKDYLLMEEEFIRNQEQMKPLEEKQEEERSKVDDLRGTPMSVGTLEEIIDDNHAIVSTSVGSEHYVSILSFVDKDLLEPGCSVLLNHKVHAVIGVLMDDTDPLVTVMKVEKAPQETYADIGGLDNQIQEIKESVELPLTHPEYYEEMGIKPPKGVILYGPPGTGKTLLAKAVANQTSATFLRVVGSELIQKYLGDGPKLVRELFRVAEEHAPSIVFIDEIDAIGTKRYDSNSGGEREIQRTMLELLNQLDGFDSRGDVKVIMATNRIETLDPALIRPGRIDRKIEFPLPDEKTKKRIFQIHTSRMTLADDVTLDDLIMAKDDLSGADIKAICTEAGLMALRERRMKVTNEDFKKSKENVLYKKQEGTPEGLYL
UniProt Q15004: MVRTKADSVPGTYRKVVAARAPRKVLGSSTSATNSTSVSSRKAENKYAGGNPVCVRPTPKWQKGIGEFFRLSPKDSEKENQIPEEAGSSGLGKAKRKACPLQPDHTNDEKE
UniProt Q9UQB8: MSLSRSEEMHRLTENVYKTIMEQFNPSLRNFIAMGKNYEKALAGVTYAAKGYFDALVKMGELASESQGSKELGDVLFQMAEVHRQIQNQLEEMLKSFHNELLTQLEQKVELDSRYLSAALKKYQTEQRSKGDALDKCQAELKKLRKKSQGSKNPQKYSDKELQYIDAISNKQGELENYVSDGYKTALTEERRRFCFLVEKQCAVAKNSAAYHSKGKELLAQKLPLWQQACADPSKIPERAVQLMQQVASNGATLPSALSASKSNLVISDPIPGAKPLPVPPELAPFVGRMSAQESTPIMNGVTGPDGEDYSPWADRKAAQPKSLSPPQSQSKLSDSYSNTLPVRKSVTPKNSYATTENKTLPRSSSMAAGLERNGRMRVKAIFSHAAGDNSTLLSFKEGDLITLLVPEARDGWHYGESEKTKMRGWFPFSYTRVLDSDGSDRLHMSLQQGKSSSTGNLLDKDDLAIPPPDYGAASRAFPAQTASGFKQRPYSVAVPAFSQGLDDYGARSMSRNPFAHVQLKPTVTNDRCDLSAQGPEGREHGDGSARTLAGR
UniProt Q01130: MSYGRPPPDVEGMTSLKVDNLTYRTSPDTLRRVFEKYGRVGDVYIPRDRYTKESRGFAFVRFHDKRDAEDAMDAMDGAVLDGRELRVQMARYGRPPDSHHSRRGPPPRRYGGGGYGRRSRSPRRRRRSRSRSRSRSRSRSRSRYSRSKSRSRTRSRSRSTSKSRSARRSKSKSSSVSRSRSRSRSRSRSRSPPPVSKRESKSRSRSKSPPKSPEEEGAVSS
UniProt Q9UNA4: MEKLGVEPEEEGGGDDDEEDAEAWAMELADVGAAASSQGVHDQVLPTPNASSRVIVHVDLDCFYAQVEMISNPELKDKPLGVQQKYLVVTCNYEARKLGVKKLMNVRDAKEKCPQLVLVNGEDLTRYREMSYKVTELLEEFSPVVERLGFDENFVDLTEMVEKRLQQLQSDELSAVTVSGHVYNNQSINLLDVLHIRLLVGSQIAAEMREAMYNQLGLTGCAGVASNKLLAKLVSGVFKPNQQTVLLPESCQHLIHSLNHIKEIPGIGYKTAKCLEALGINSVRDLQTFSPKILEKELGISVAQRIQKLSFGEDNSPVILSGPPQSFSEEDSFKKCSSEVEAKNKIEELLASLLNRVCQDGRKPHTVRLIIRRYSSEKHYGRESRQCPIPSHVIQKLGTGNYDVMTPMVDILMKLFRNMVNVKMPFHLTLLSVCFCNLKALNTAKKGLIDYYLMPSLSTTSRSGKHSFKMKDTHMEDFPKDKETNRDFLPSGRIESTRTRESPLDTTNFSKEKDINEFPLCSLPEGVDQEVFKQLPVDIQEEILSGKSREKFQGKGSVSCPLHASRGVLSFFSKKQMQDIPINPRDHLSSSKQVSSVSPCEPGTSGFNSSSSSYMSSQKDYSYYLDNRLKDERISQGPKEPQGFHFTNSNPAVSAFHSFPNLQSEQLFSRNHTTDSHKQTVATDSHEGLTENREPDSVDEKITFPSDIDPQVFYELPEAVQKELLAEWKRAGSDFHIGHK

Compound: Nc1ncnc2c1ncn2[C@@H]1O[C@H](COP(=O)(O)OP(=O)(O)NP(=O)(O)O)[C@@H](O)[C@H]1O [adenylyl imidodiphosphate]
Assay: NP40-soluble protein abundance relative to vehicle (solubility fold change) (ratio); higher = more soluble protein in presence of AMP-PNP
Procedure, shortened: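 Eight concentrations, 0.1 to 10 mM, were tested on Jurkat crude lysate for 10 min at room temperature and then 3 min at 37 °C, in three independent experiments. The lysate was solubilised with 0.8% NP40 and benzonase, ultracentrifuged, and the supernatant TMT-labelled for LC-MS/MS. Each value is the fold change against the detergent-processed vehicle in its own replicate, from vsn-normalised intensities.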

Row | Target | NP40-soluble protein abundance (concentration: 0.1mM) | NP40-soluble protein abundance (concentration: 0.5mM)
1 | H7C4N2 and related entries (UniProt P13797) | 0.999 ± 0.052 | 0.98 ± 0.034
2 | H0YDM4 and related entries (UniProt Q86VS8) | 0.9768 ± 0.0072 | 0.993 ± 0.014
3 | H0YEH1 and related entries (UniProt Q13492) | 1.01 ± 0.024 | 1.02 ± 0.022
4 | H7C488 and related entries (UniProt Q9NQ48) | 0.992 ± 0.091 | 0.989 ± 0.09
5 | J3KPF0 (UniProt Q9Y4D8) | 1.01 ± 0.037 | 0.986 ± 0.051
6 | G3V4X1 and related entries (UniProt P62191) | 0.99 ± 0.027 | 0.979 ± 0.041
7 | H0YKX3 and related entries (UniProt Q15004) | 0.977 ± 0.01 | 0.973 ± 0.016
8 | I3L4C2 and related entries (UniProt Q9UQB8) | 1.01 ± 0.011 | 1.012 ± 0.0079
9 | J3KP15 and related entries (UniProt Q01130) | 1.04 ± 0.053 | 1.04 ± 0.038
10 | J3KQ09 and related entries (UniProt Q9UNA4) | 1.02 ± 0.037 | 1 ± 0.037

2 entries from above in another layout.
Row,Target,NP40-soluble protein abundance (concentration: 0.1mM),NP40-soluble protein abundance (concentration: 0.5mM)
7,H0YKX3 and related entries (UniProt Q15004),0.977 ± 0.01,0.973 ± 0.016
8,I3L4C2 and related entries (UniProt Q9UQB8),1.01 ± 0.011,1.012 ± 0.0079
